According to US12016935B2 (Washington University, priority 2016, dated 2024):

Experiment: peptide synthesis
Settings: conjugation step, reverse phase HPLC with UV/VIS detector, C-18 column

**Q.** Which “final HPLC purity” value does the source give for “ECL1i (DLeu-Gly-DThr-DPhe-DLeu-DLys-DCys)” here?
**A.** 99%
